Experimental data from paper PMC9007350, “Aurintricarboxylic acid is a canonical disruptor of the TAZ-TEAD transcriptional complex” (PLoS ONE, 2022).
Further values from the same series stand in other lists.

Test system: TC/TEAD transcriptional profile in TC-expressing NIH3T3 cells
Assay: Bulk RNA-Seq, differential gene expression and GSEA (TC ATA v. TC DMSO)
Format: cell-based, murine
Details: TC ATA v. TC DMSO
Description: NIH3T3 and HEK293 cells were obtained from the American Type Tissue Collection (ATCC, Manassas, VA) and cultured in DMEM containing 10% fetal bovine serum and penicillin/streptomycin. A TEAD dual luciferase reporter assay was performed as previously described. Cells were treated with vehicle control or ATA (10 μM) for 48 h before measuring the luciferase activity or processing the samples for RNA extraction. Each experiment was repeated at least 2-3 times. NIH3T3 cells were used. The extracted RNA (RNeasy Mini, Qiagen) from treated cells was either used for qPCR measurements or sent for bulk RNA-Seq. Sequencing runs were performed on an Illumina HiSeq 4000 sequencer (Genewiz). Subsequent bioinformatics analysis was performed in the Galaxy Project platform. Paired end reads were aligned to the murine genome ([…]2 [27]. Raw count files were generated with featureCounts using a corresponding GTF reference. Differential gene expression analysis was performed with DESeq2 [29]. Transcripts were considered to be differentially expressed if the false discovery rate < 0.05 and Log2FC > 2. When performing differential gene expression for GSEA analysis, the Limma package was used (<5 CPM filtering) with t-scores used for rank statistics. GSEA plots and statistics were generated with FGSEA with custom gene sets. Raw sequencing reads and processed files have been deposited in the GEO repository (data will be uploaded upon manuscript acceptance). The Universal Probe Library probes (Roche) and the associated primer sequences for the qPCR targets are listed below: […]

SMILES: O=C(O)C1=CC(=C(c2ccc(O)c(C(=O)O)c2)c2ccc(O)c(C(=O)O)c2)C=CC1=O [ATA, aurintricarboxylic acid]
- Log2 Fold Change (Tead4): -0.2498
- Log2 Fold Change (Thra): 0.2545
- Log2 Fold Change (Timp2): 0.2462
- Log2 Fold Change (Tjp2): -0.2192
- Log2 Fold Change (Tle2): 0.5839
- Log2 Fold Change (Tnc): -0.3143
- Log2 Fold Change (Tnfaip2): -0.2543
- Log2 Fold Change (Tnk2): -0.2124
- Log2 Fold Change (Tob1): 0.2928
- Log2 Fold Change (Tom1): 0.43
- Log2 Fold Change (Tsr1): -0.2296
- Log2 Fold Change (Ttn): 0.4567
- Log2 Fold Change (Txnrd1): -0.1991
- Log2 Fold Change (Uap1l1): 0.2452
- Log2 Fold Change (Ugt1a7c): 0.6553
- Log2 Fold Change (Utp4): -0.2274
- Log2 Fold Change (Uvrag): 0.279
- Log2 Fold Change (Vdr): 0.5001
- Log2 Fold Change (Vegfd): 0.2471
- Log2 Fold Change (Vgf): -0.3687
- Log2 Fold Change (Vwa5a): 0.294
- Log2 Fold Change (Wnt6): 0.9495
- Log2 Fold Change (Xdh): 0.3048
- Log2 Fold Change (Xirp2): 0.5497
- Log2 Fold Change (Zfp324): 0.3369
- Log2 Fold Change (Zfpm2): -0.5868
- Log2 Fold Change (gene 2510009E07Rik): 0.5258
- Log2 Fold Change (gene 2810025M15Rik): -0.3219
- Log2 Fold Change (gene 2900042K21Rik): -1.025
- Log2 Fold Change (gene 2900052L18Rik): 0.6386
- Log2 Fold Change (gene 4930523C07Rik): 0.5467
- Log2 Fold Change (gene 4933431E20Rik): 0.5936
- Log2 Fold Change (gene AI506816): -0.5762
- Log2 Fold Change (gene AU020206): -0.4278
- Log2 Fold Change (gene Abcb1b): -0.3097
- Log2 Fold Change (gene Abcc4): 0.3743
- Log2 Fold Change (gene Abcd3): 0.2172
- Log2 Fold Change (gene Abhd17a): -0.2859
- Log2 Fold Change (gene Abl2): -0.2791
- Log2 Fold Change (gene Ablim1): 0.3683
- Log2 Fold Change (gene Abra): 0.7907
- Log2 Fold Change (gene Acss2): 0.4226
- Log2 Fold Change (gene Acta2): 0.959
- Log2 Fold Change (gene Actc1): -0.9277
- Log2 Fold Change (gene Actn2): 1.014
- Log2 Fold Change (gene Actn3): 0.3752
- Log2 Fold Change (gene Actr3b): 1.112
- Log2 Fold Change (gene Adam23): 0.5896
- Log2 Fold Change (gene Adamts1): 0.3728
- Log2 Fold Change (gene Adamts2): 0.4007
- Log2 Fold Change (gene Adamts5): 0.3878
- Log2 Fold Change (gene Adamts9): 0.7758
- Log2 Fold Change (gene Adamts12): 0.3964
- Log2 Fold Change (gene Adcy7): -0.6069
- Log2 Fold Change (gene Adgrl1): 0.2609
- Log2 Fold Change (gene Adh7): 0.3304
- Log2 Fold Change (gene Adm): 0.8772
- Log2 Fold Change (gene Adora2b): -0.3391
- Log2 Fold Change (gene Adra1b): 0.8094
- Log2 Fold Change (gene Adssl1): 0.5943
- Log2 Fold Change (gene Aff3): 0.4724
- Log2 Fold Change (gene Agt): 1.509
- Log2 Fold Change (gene Ahrr): 1.0715
- Log2 Fold Change (gene Ak3): 0.2457
- Log2 Fold Change (gene Akr1c14): 0.4919
- Log2 Fold Change (gene Alcam): -0.4577
- Log2 Fold Change (gene Aldh1a1): 0.8976
- Log2 Fold Change (gene Aldh1a7): 0.9023
- Log2 Fold Change (gene Aldh3a1): 0.6906
- Log2 Fold Change (gene Aloxe3): -1.096
- Log2 Fold Change (gene Alpk3): 0.7828
- Log2 Fold Change (gene Anapc10): 0.3118
- Log2 Fold Change (gene Ankrd9): -0.3164
- Log2 Fold Change (gene Ankrd34a): 0.358
- Log2 Fold Change (gene Antxr1): 0.4939
- Log2 Fold Change (gene Aoc3): 1.3253
- Log2 Fold Change (gene Apba1): 1.356
- Log2 Fold Change (gene Apobec2): 0.5887
- Log2 Fold Change (gene Apol9a): 0.4332
- Log2 Fold Change (gene Aqp1): 0.311
- Log2 Fold Change (gene Arfgap3): 0.2502
- Log2 Fold Change (gene Arhgap22): -0.3046
- Log2 Fold Change (gene Arhgap28): -0.2569
- Log2 Fold Change (gene Arl4d): 0.4285
- Log2 Fold Change (gene Arsa): 0.2545
- Log2 Fold Change (gene Art3): 0.682
- Log2 Fold Change (gene Arv1): -0.3229
- Log2 Fold Change (gene Asap1): 0.1985
- Log2 Fold Change (gene Aspn): 1.692
- Log2 Fold Change (gene Atg16l2): 0.5753
- Log2 Fold Change (gene Atoh8): 1.29
- Log2 Fold Change (gene Atp6v0a1): 0.3381
- Log2 Fold Change (gene Atp6v0d1): 0.3858
- Log2 Fold Change (gene B3gnt5): -0.6705
- Log2 Fold Change (gene B3gnt9): 0.4625
- Log2 Fold Change (gene B4galnt3): -0.9756
- Log2 Fold Change (gene BC023105): -1.117
- Log2 Fold Change (gene BC055324): -0.2339
- Log2 Fold Change (gene Bax): 0.2261
- Log2 Fold Change (gene Bdh2): 0.896
- Log2 Fold Change (gene Bmf): 1.607
- Log2 Fold Change (gene Bmper): 0.5521
- Log2 Fold Change (gene Bms1): -0.2343
- Log2 Fold Change (gene Bnc1): -0.4619
- Log2 Fold Change (gene Bst2): 0.3077
- Log2 Fold Change (gene Btc): -1.307
- Log2 Fold Change (gene C1qtnf1): 0.7136
- Log2 Fold Change (gene C1qtnf6): 0.6079
- Log2 Fold Change (gene C1ra): 0.2648
- Log2 Fold Change (gene C1s1): 1.162
- Log2 Fold Change (gene C1s2): 1.065
- Log2 Fold Change (gene Cacna1a): 0.2433
- Log2 Fold Change (gene Cacna1c): 0.419
- Log2 Fold Change (gene Cacna1g): 0.7268
- Log2 Fold Change (gene Cad): -0.276
- Log2 Fold Change (gene Capn5): 0.4335
- Log2 Fold Change (gene Capn6): 0.413
- Log2 Fold Change (gene Carmn): 1.388
- Log2 Fold Change (gene Casp4): 0.5164
- Log2 Fold Change (gene Cat): 0.2291
- Log2 Fold Change (gene Cbr4): 0.3736
- Log2 Fold Change (gene Ccbe1): -1.0635
- Log2 Fold Change (gene Ccdc61): -0.2496
- Log2 Fold Change (gene Ccl2): 0.3728
- Log2 Fold Change (gene Ccn5): 2.113
- Log2 Fold Change (gene Ccnd1): -0.2482
- Log2 Fold Change (gene Ccnyl1): -0.1904
- Log2 Fold Change (gene Ccsap): -0.247
- Log2 Fold Change (gene Cct2): -0.2088
- Log2 Fold Change (gene Cd200): -1.032
- Log2 Fold Change (gene Cd276): 0.2233
- Log2 Fold Change (gene Cd300lg): 1.4
- Log2 Fold Change (gene Cdc40): -0.2212
- Log2 Fold Change (gene Cdca7): -0.1991
- Log2 Fold Change (gene Cdh11): 0.298
- Log2 Fold Change (gene Cdh15): -1.144
- Log2 Fold Change (gene Cdkn1a): 0.2603
- Log2 Fold Change (gene Cdon): 0.5124
- Log2 Fold Change (gene Cemip): 0.5859
- Log2 Fold Change (gene Cfap36): -0.3751
- Log2 Fold Change (gene Cfl2): -0.1976
- Log2 Fold Change (gene Chac1): -0.2399
- Log2 Fold Change (gene Chfr): 0.2966
- Log2 Fold Change (gene Chmp2b): 0.2323
- Log2 Fold Change (gene Chpf2): 0.2848
- Log2 Fold Change (gene Chtf18): -0.2476
- Log2 Fold Change (gene Cited2): 0.4541
- Log2 Fold Change (gene Cluh): -0.1887
- Log2 Fold Change (gene Cmya5): 0.5159
- Log2 Fold Change (gene Cnksr3): 0.2811
- Log2 Fold Change (gene Col4a5): 0.2799
- Log2 Fold Change (gene Col5a2): 0.2698
- Log2 Fold Change (gene Col6a1): 0.3903
- Log2 Fold Change (gene Col11a1): 0.5083
- Log2 Fold Change (gene Col16a1): 0.3017
- Log2 Fold Change (gene Colec12): 0.4192
- Log2 Fold Change (gene Copz2): 0.3357
- Log2 Fold Change (gene Coq9): 0.2858
- Log2 Fold Change (gene Cox6a2): 0.5376
- Log2 Fold Change (gene Cox8b): 0.7326
- Log2 Fold Change (gene Cped1): 0.6959
- Log2 Fold Change (gene Cpne8): -0.3134
- Log2 Fold Change (gene Cpq): 0.4083
- Log2 Fold Change (gene Crabp1): -0.8383
- Log2 Fold Change (gene Crebl2): 0.2826
- Log2 Fold Change (gene Crip2): -0.3501
- Log2 Fold Change (gene Crlf1): 0.7651
- Log2 Fold Change (gene Csad): 0.2653
- Log2 Fold Change (gene Csdc2): 0.7714
- Log2 Fold Change (gene Csrp1): 0.3415
- Log2 Fold Change (gene Ctdsp2-ps): 0.2838
- Log2 Fold Change (gene Ctsa): 0.2699
- Log2 Fold Change (gene Ctso): 0.4681
- Log2 Fold Change (gene Cttnbp2nl): -0.2908
- Log2 Fold Change (gene Cx3cl1): 0.4055
- Log2 Fold Change (gene Cxcl5): 0.6442
- Log2 Fold Change (gene Cxcl12): 0.7796
- Log2 Fold Change (gene Cyb5a): 0.3792
- Log2 Fold Change (gene Cyp1a1): 0.8267
- Log2 Fold Change (gene Cyp1b1): 0.9979
- Log2 Fold Change (gene Cyp4v3): 0.8065
- Log2 Fold Change (gene Cyp26b1): 0.8568
- Log2 Fold Change (gene Cyp51): 0.2145
- Log2 Fold Change (gene D030025P21Rik): -0.817
- Log2 Fold Change (gene Daam1): -0.4049
- Log2 Fold Change (gene Daam2): 1.096
- Log2 Fold Change (gene Dab2): -0.189
- Log2 Fold Change (gene Dact3): 0.3342
- Log2 Fold Change (gene Dap): 0.2446
- Log2 Fold Change (gene Dbn1): -0.2854
- Log2 Fold Change (gene Dbp): 0.5516
- Log2 Fold Change (gene Dcaf6): 0.2596
- Log2 Fold Change (gene Dcbld2): -0.2221
- Log2 Fold Change (gene Dclk1): 0.2203
- Log2 Fold Change (gene Ddit4): 0.1825
- Log2 Fold Change (gene Dhrs9): 0.3599
- Log2 Fold Change (gene Diras2): 0.8102
- Log2 Fold Change (gene Dkk2): -0.6215
- Log2 Fold Change (gene Dnajb4): 0.2471
- Log2 Fold Change (gene Dock7): -0.1804
- Log2 Fold Change (gene Dock8): -0.5377
- Log2 Fold Change (gene Dpp7): 0.2978
- Log2 Fold Change (gene Dpysl3): -0.327
- Log2 Fold Change (gene Dstn): 0.2475
- Log2 Fold Change (gene Dusp1): 0.337
- Log2 Fold Change (gene Dusp9): -0.3562
- Log2 Fold Change (gene Dynap): -1.032
- Log2 Fold Change (gene Dync1h1): -0.2247
- Log2 Fold Change (gene Dync2li1): 0.3089
- Log2 Fold Change (gene Ech1): 0.3451
- Log2 Fold Change (gene Edil3): -1.0691
- Log2 Fold Change (gene Eef1a2): 0.5368
- Log2 Fold Change (gene Efnb2): -0.4395
- Log2 Fold Change (gene Egr1): 0.6964
- Log2 Fold Change (gene Emb): 0.4199
- Log2 Fold Change (gene Emilin1): 0.632
- Log2 Fold Change (gene Emilin2): 0.3255
- Log2 Fold Change (gene Emp2): 0.1909
- Log2 Fold Change (gene En1): 0.3071
- Log2 Fold Change (gene Enc1): -0.2049
- Log2 Fold Change (gene Epg5): -0.2899
- Log2 Fold Change (gene Ephx1): 0.682
- Log2 Fold Change (gene Erbin): 0.3234
- Log2 Fold Change (gene Etv4): -0.4971
